Some entries share one result that the patent states for a list of compounds. At least one structure is not confirmed: it was looked up by name or label, or the drawing left a doubt.
Test system: patients with heavy menstrual bleeding and pain
Experiment: Hepatobiliary Disorders and Liver Safety analysis (Example 3)
Format: in vivo, human
Conditions: a few subjects from all 3 treatment groups; in general; transient, resolved under treatment
Protocol: A double-blinded, randomized, study evaluating the effect of long term oral administration of 5 mg or 10 mg ulipristal in patients with heavy menstrual bleeding and pain. A Hepatobiliary Disorders and Liver Safety analysis was carried out for all patients. This summary table illustrates the increased number of subjects from the 3 treatment groups who had increased levels of AST, ALT and total bilirubin during the study.

CC(=O)O[C@]1(C(C)=O)CC[C@H]2[C@@H]3CCC4=CC(=O)CCC4=C3[C@@H](c3ccc(N(C)C)cc3)C[C@@]21C [Ulipristal, 17α-acetoxy-11β-[4-N,N-dimethylamino-phenyl)-19-norpregna-4,9-diene-3,20-dione]
elevation of transaminase levels: less than 2 × upper limit of normal range (ULN)

Reference: patent US10441593B2, “Treatment of pain associated with dislocation of endometrium” (PREGLEM S.A., priority 2010, dated 2019)
